From PubChem BioAssay AID602454 (National Center for Advancing Translational Sciences (NCATS), 2012) come the findings set out here.

This is one part of the list. Shown are side measurements of this screen, not its main read-out; they come without a call. Compounds called inactive in the main read-out are mostly missing here.

A short description of the assay: qHTS Assay for Inhibitors of Influenza NS1 Protein Function: Viral Replication TCID50. To be noted: Influenza virus replication in cells, at 5 µM, stronger effect = lower value. The source says:
Influenza is a world-wide public health problem and emerging forms of the virus have the potential to cause a pandemic of equal or greater magnitude to the outbreaks recorded in 1918, 1957 or 1968. Vaccine development is proceeding and there also exist two classes of anti-influenza compounds. However these therapeutic modalities are neither fully effective nor widely enough available to fulfill global needs. In addition their potential usefulness against newly emergent strains is not known. Efforts are needed to develop novel agents against influenza virus, including broad-spectrum agents. Identification of small molecules that inhibit NS1 function either directly or by interfering with specific cellular pathways may be a key to increasing our defense against the virus.
We have miniaturized and optimized a cell based assay in which NS1 from influenza A is expressed in the budding yeast S. cerevisiae. NS1 is a multi-functional protein that counters the host innate immune response and facilitates viral versus cellular gene expression. Expression of NS1 causes a pronounced slow growth phenotype in yeast due to its intrinsic molecular activities. Small molecules that suppress the slow growth phenotype can be identified by a straightforward growth recovery assay using optical density (OD) as the measurement. The same yeast strain not expressing NS1 was used as positive control in the yeast growth recovery assay.
Hits resulting from the primary screen and other follow-up screens, were tested in two concentrations in this viral replication assay.
NIH Chemical Genomics Center [NCGC]
NIH Molecular Libraries Probe Centers Network [MLPCN]
Assay Submitter (PI): Daniel Engel, University of Virgina
Cell monolayers were infected at an m.o.i. of 0.1 for 48 h in the presence or absence of the compound, which was added at the beginning of infection. Virus titres were determined by TCID50 analysis (Reed, L. J. & Muench, H. (1938). A simple method of estimating fifty per cent endpoints. Am J Epidemiol 27, 493-497)
`COc1cc(-c2ccnc3c2c(C)nn3-c2cccc(C(F)(F)F)c2)ccc1O` yielded a viral titer (log10 TCID50) of 8.33.

In turn, `COc1cc(-c2c(C#N)c(N)nc3c2c(C)nn3-c2ccccc2)ccc1O` displayed a viral titer (log10 TCID50) of 8.5.

With `Cc1ccc(-n2nc(C)c3c(-c4ccc(O)c(O)c4)c(C#N)c(N)nc32)cc1C`, the viral titer (log10 TCID50) is 8.

The compound `CCOC(=O)c1cnc2c(c(C)nn2-c2ccc(F)cc2)c1-c1ccc(O)c(OC)c1` showed a viral titer (log10 TCID50) of 8.5.

Turning to `Cc1ccc(-n2nc(C)c3c(-c4ccc(O)c(O)c4)c(C#N)c(N)nc32)cc1`, the viral titer (log10 TCID50) amounted to 8.

In turn, `COc1cc(-c2ccnc3c2c(C)nn3-c2ccc(C(F)(F)F)cc2)ccc1O` gave a viral titer (log10 TCID50) of 8.33.

In turn, `COc1cc(-c2c(C#N)c(N)nc3c2c(C)nn3-c2ccc(Cl)cc2)ccc1O` showed a viral titer (log10 TCID50) of 8.66.

`COc1ccc(-n2nc(C)c3c(-c4ccc(O)c(OC)c4)ccnc32)cc1` had a viral titer (log10 TCID50) of 8.33.

The compound `Cc1nn(-c2ccc(Cl)cc2)c2nc(N)c(C#N)c(-c3ccc(O)c(O)c3)c12` yielded a viral titer (log10 TCID50) of 8.33.
